Among the data in paper PMC7782785, “Outer-membrane-acting peptides and lipid II-targeting antibiotics cooperatively kill Gram-negative pathogens” (Communications Biology, 2021) are MIC values, retold here.

Structures are written as SMILES. In brackets after ≈: the same amount, converted by molar mass.

What all share (type): cell-based
One assay deals with E. faecalis V583. The assay can be described thus: microbe, parasite or virus in culture. As to conditions: Enterococcus faecalis. As for the experimental part: (§1) MIC tests were performed in triplicate by liquid growth inhibition microdilution assays in sterile polypropylene microtiter plates according to the Clinical and Laboratory Standards Institute (CLSI) guideline for bacteria that grow aerobically. Briefly, the indicator strains were first streaked on the appropriate agar plate, and then single colonies were picked and incubated overnight in liquid broth. The final inoculum of bacteria was 5*10^5 CFU/mL prepared in CAMHB (cationic adjusted Mueller–Hinton broth, Sigma-Aldrich) or CAMHB plus 5% of lysed horse blood (TCS Biosciences, Buckingham, UK) in the case of S. pneumoniae. The antimicrobials were 2-fold serially diluted and 50 µL diluted bacterial suspension was added to each well to make the final volume 100 µL. The microtiter plates and the count plates were incubated at 37 °C for 16–20 h without shaking. Growth inhibition was assessed by measuring the OD600 using a microplate reader (Tecan Infinity F200). The lowest concentration of the antimicrobials that inhibits visible growth of the indicator strain is identified as the MIC value.

The next assay concerns E. faecium LMG16003. The assay is described as follows: microbe, parasite or virus in culture. The note with it: Enterococcus faecium. The method, then: as §1
A further assay deals with S. aureus LMG8224. The assay can be described thus: microbe, parasite or virus in culture. As to conditions: Staphylococcus aureus. As for the experimental part: as §1
The next assay relates to S. pneumoniae R6. The assay can be described thus: MIC, broth microdilution. The note with it: Streptococcus pneumoniae; S. pneumoniae R6 (Gram-positive); compound alone; CAMHB plus 5% lysed horse blood. The method, then:
as §1
(In general: Dilution methods test growth across graded concentrations, often in twofold steps.)

Take `CN[C@H](CC(C)C)C(=O)N[C@H]1C(=O)N[C@@H](CC(N)=O)C(=O)N[C@H]2C(=O)N[C@H]3C(=O)N[C@H](C(=O)N[C@H](C(=O)O)c4cc(O)cc(O)c4-c4cc3ccc4O)[C@H](O)c3ccc(c(Cl)c3)Oc3cc2cc(c3O[C@@H]2O[C@H](CO)[C@@H](O)[C@H](O)[C@H]2O[C@H]2C[C@](C)(N)[C@H](O)[C@H](C)O2)Oc2ccc(cc2Cl)[C@H]1O` [Vancomycin]: the MIC against E. faecalis V583 is 4.13 µM (≈ 5.99 µg/mL); in the assay with E. faecium LMG16003, > 85 µM; in the assay on S. aureus LMG8224, 1.37 µM (≈ 1.99 µg/mL); in the assay with S. pneumoniae R6, 0.34 µM.
